Results reported in US20260034192A1 (University of Saskatchewan, priority 2022, published 2026).
Square brackets hold non-standard residues; d marks the D form. Peptide text beside a SMILES is read from it. dPhe(4-Cl) = N[C@H](Cc1ccc(Cl)cc1)C(=O)O; d2Nal = N[C@H](Cc1ccc2ccccc2c1)C(=O)O; dCit = NC(=O)NCCC[C@@H](N)C(=O)O; d3Pal = N[C@H](Cc1cccnc1)C(=O)O

System: Hereford crossbred heifers
Experiment: Cetrorelix pre-treatment before kisspeptin-10 in low-progesterone heifer model (Example 1)
Format: in vivo, cattle
Settings: Day 6 of wave, Kp10 3 x 15 mg iv, Cetrorelix 20 μg/Kg im 3 h before Kp10, mean ± SEM
Experimental: Methods: The human Kisspeptin-10 (hKP-10) peptide (YNWNSFGLRF-NH2; SEQ ID NO: 1) was custom synthetized at >95% of purity (MW: 1318.44 g/mol) by GenScript USA Inc, Piscataway, NJ, USA. The sequence is based on the predicted C-terminal region (112-121-NH2) of human metastin (Gen Bank accession #AY117143) and has been previously used in cattle. The peptide was previously tested for solubility and was dissolved in ultrapure water at 10 mg/mL.
The heifers were maintained in outdoor pens at the University of Saskatchewan Goodale Research Farm (52° north and 106° west). Heifers were fed barley silage and had hay and water ad libitum. […]
Immediately after ultrasound examination, heifers were given PGF2a twice at an interval of 12-hours. […] The day of wave emergence (Day 0) was defined as the day when the follicle of wave was first recorded (4 to 5 mm in diameter) with concurrent increase in diameter. […] The progesterone device was withdrawn on Day 12 (i.e., thirteen days after insertion) and ultrasound examinations were continued until ovulation was detected. […]
The plasma samples from both experiments were analyzed for LH and progesterone concentration at the University of Wisconsin (Madison, WI, USA) in Dr O. J. Ginther's Research Laboratory. Plasma LH concentrations were measured with a validated radioimmunoassay for cattle (Bolt et al. 1990) with modifications as reported Ginther et al. 1999). […]

Row | Molecule | Plasma progesterone on the day of treatment (Day 6)
1 | CC(=O)N[C@H](Cc1ccc2ccccc2c1)C(=O)N[C@H](Cc1ccc(Cl)cc1)C(=O)N[C@H](Cc1cccnc1)C(=O)N[C@@H](CO)C(=O)N[C@@H](Cc1ccc(O)cc1)C(=O)N[C@H](CCCNC(N)=O)C(=O)N[C@@H](CC(C)C)C(=O)N[C@@H](CCCNC(=N)N)C(=O)N1CCC[C@H]1C(=O)N[C@H](C)C(N)=O [Cetrorelix, N-acetyl-3-(2-naphthyl)-D-alanyl-4-chloro-D-phenylalanyl-3-(3-pyridyl)-D-alanyl-L-seryl-L-tyrosyl-D-citrullyl-L-leucyl-L-arginyl-L-prolyl-D-alaninamide] (Ac-[d2Nal][dPhe(4-Cl)][d3Pal]SY[dCit]LRP[dA]-NH2) | 1.41 ± 0.56
2 | Kp10: human Kisspeptin-10 (hKP-10) peptide YNWNSFGLRF-NH2; SEQ ID NO: 1 | 1.86 ± 0.43
